PubChem BioAssay AID504774, Drosophila RNAi Screening Center | 2011
Test: 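Genes required for cells to withstand methyl methanesulphonate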 (primary screen). System: Drosophila Kc167 cells. Knock-down reagent: long dsRNA against Drosophila genes, about 0.25 µg dsRNA per well. Time to read-out: about 6 days: 3 days knock-down, then 3 days with or without MMS. Challenge: methyl methanesulphonate 0.004% (w/v) for 3 days after knock-down. Detection: 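ATP-dependent luminescence as a measure of live cells in MMS-exposed wells, quantile normalised within each plate, with replicate values also given as a mean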. Scale: mean viability with MMS: higher = more surviving cells after MMS.
In all, the deposit lists about 23,000 reagents; below is an unselected part of those that have a named target and a result. 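Values are quantile-normalised luminescence on an arbitrary scale; higher means more cells surviving MMS.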 Names joined by + are all predicted targets of the reagent. Further read-outs or replicates are left out here.

Nepl5 (Neprilysin-like 5) [DRSC03241]
- mean viability with MMS: 3.76e6

mute (muscle wasted) [DRSC06562]
- mean viability with MMS: 3.18e6

mute (muscle wasted) [DRSC22931]
- mean viability with MMS: 2.95e6

Obp50c + Obp50b [DRSC05482]
- mean viability with MMS: 3.48e6

CG13284 [DRSC02256]
- mean viability with MMS: 3.58e6

CG15822 [DRSC08482]
- mean viability with MMS: 3.52e6

CG15822 [DRSC08483]
- mean viability with MMS: 3.60e6

CG10252 [DRSC14221]
- mean viability with MMS: 3.37e6

Mpcp1 [DRSC07337]
- mean viability with MMS: 3.73e6

sav (salvador) [DRSC14681]
- mean viability with MMS: 3.57e6

sav (salvador) [DRSC14682]
- mean viability with MMS: 3.60e6

CG9706 [DRSC11095]
- mean viability with MMS: 3.59e6

CG11815 [DRSC08209]
- mean viability with MMS: 3.43e6

Rnb (R and B) [DRSC16325]
- mean viability with MMS: 3.37e6

2 entries from above, set out differently.
CG9706 [DRSC11095]: mean viability with MMS = 3.59e6
CG11815 [DRSC08209]: mean viability with MMS = 3.43e6
